Measured values published in PubChem BioAssay AID2417 (National Center for Advancing Translational Sciences (NCATS), 2010).
Screen size: about 140,000 compounds; about 4,300 (3.1%) were called active. The shares of active, inactive and inconclusive entries below differ from those in the screen.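 Rule for the calls: active = readout at or below -70, meaning at least 70% loss of cells showing the perinucleolar compartment, a nuclear body marking cancer cells; inconclusive = readout between -30 and a set limit; inactive = the rest.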

Assay: High Content Assay for Compounds that inhibit the Assembly of the Perinucleolar Compartment;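 note: plate controls were DMSO wells for no effect and camptothecin positive control wells for full effect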
Conditions: PC3M PTB-GFP, PNC prevalence imaging, 16 h; at 10 µM; stronger effect = lower value
Outline: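 PC3M cells stably expressing PTB-GFP, 750–1000 cells/well, treated 16 h at 37 °C with compound (23 nl of library stock), in duplicate. After paraformaldehyde fixation and Hoechst stain, imaged at 20x; PNC prevalence scored by image analysis.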

Row | SMILES | activity change (PNC), negative = inhibition
1 | N#Cc1c(-c2ccco2)nc(SCC(=O)Nc2ccc(S(N)(=O)=O)cc2)[nH]c1=O | inactive: 43.4%
2 | CCN(CC)CCNc1nc2c(c(=O)[nH]c(=O)n2C)n1CC(O)COc1ccc(Cl)cc1Cl (stereo not given) | active: -83.7%
3 | Cc1cc(NC(=O)c2ccc3c(c2)OCO3)no1 | inconclusive: -57.2%
4 | S=c1[nH]nc(-c2ccccn2)n1/N=C/c1cccc2ccccc12 | inconclusive: -65.1%
5 | O=C(Nc1ccc(/C=C/c2nc3ccccc3o2)cc1)c1cccc(C(F)(F)F)c1 | inactive: -26.6%
6 | Nc1ncnc(Sc2ccccc2)c1[N+](=O)[O-] | inconclusive: -49.1%
7 | Cc1cc(C)nc(SCC(=O)N2CCCCC2)n1 | inconclusive: -38.4%
8 | C=CCN1C(C(=O)c2ccccc2)=C(OC(=O)COc2ccccc2)c2ccccc2S1(=O)=O | inactive: 40.6%
9 | Oc1ccc(-c2nnc(SCC3CCCCC3)o2)cc1 | inactive: -7.52%
10 | CCSc1nnc(NC(=O)c2ccco2)s1 | inconclusive: -37.1%
11 | CC1CCCCC1NS(=O)(=O)c1ccc(-n2cnnn2)cc1 (stereo not given) | inactive: -22.2%
12 | CCC(C)Sc1nc2c(c(=O)[nH]c(=O)n2C)n1CC(O)COc1ccccc1C (stereo not given) | inactive: -28.3%
13 | CC1(C)N=C(SCC(=O)Nc2ccc(Cl)cc2)C(c2ccc(Cl)cc2)=N1 | inconclusive: -33.1%
14 | COc1cc2c(cc1OC)C(c1cccnc1)CC(=O)N2 (stereo not given) | active: -82%
15 | CS(=O)(=O)N(CC(=O)N1CCc2ccccc2C1)Cc1ccccc1 | inconclusive: -54.7%
16 | O=C(N=Nc1c(O)[nH]c2ccc(Cl)cc12)c1cc(-c2cccs2)nc2ccccc12 | inactive: 20.9%
17 | CCCOc1ccc(NC(=O)OC2CCN(C)CC2)cc1 | inactive: 15.6%
18 | CCNC(=S)Nc1scc(-c2ccccc2)c1C(=O)OCC | inactive: 2.24%
19 | O=C(c1ccc2snnc2c1)N1CCCC1 | inconclusive: -39%
20 | c1ccc(Cc2nnc3sc(Nc4ccccc4)nn23)cc1 | inactive: 0.606%
21 | O=C(O)Cc1sc(-c2ccc(Cl)cc2)nc1-c1ccccc1 | inactive: 20.6%
22 | Cc1ccc(C)c(NC(=O)CNS(=O)(=O)c2ccccc2)c1 | active: -80.4%
23 | O=C1C2C3C=CC(C3)C2C(=O)N1Cc1ccccc1 (stereo not given) | inconclusive: -43.3%

Reprinted, nos. 6 to 8
Row | SMILES | activity change (PNC), negative = inhibition
6 | Nc1ncnc(Sc2ccccc2)c1[N+](=O)[O-] | inconclusive: -49.1%
7 | Cc1cc(C)nc(SCC(=O)N2CCCCC2)n1 | inconclusive: -38.4%
8 | C=CCN1C(C(=O)c2ccccc2)=C(OC(=O)COc2ccccc2)c2ccccc2S1(=O)=O | inactive: 40.6%

Following part.

Row | SMILES | activity change (PNC), negative = inhibition
24 | Cn1ncc(Cl)c1C(=O)Nc1sc2c(c1C(N)=O)CCC2 | inactive: 10.6%
25 | COc1cccc(-n2nnnc2S(C)(=O)=O)c1 | inconclusive: -48.9%
26 | CN(C)c1ccc2c(c1)OC(N)=C(C#N)C2c1cccc(F)c1 (stereo not given) | active: -85%
27 | CN(C)S(=O)(=O)c1ccc(Cl)c(NC(=O)COc2ccccc2[N+](=O)[O-])c1 | inactive: 3.04%
28 | O=C(NNC1=NCCC1)c1cccc(S(=O)(=O)N2CCCC2)c1 | active: -107%
29 | COc1cc(OC)cc(C(=O)Nn2cc(C(=O)Nc3ccc(F)cc3F)c3ccccc3c2=O)c1 | inactive: 29.9%
30 | COc1ccc2c(c1)c(=O)c(Br)c(C)n2Cc1ccccc1 | inconclusive: -42.2%
31 | Cc1cc(C)c(NC(=O)c2cn3c4c(c(N5CCN(C)CC5)c(F)cc4c2=O)OCC3C)c(C)c1 (stereo not given) | inconclusive: -70.5%
32 | COCc1cc(C)nc(NCCc2ccccc2)c1C#N | inconclusive: -49.1%
33 | CCC(Sc1ncccn1)C(=O)Nc1cc(C)on1 (stereo not given) | inconclusive: -36.8%
34 | O=C(CSc1cccc2cccnc12)OCC(=O)c1ccc(Br)cc1 | inconclusive: -66.6%
35 | Cc1cccc(CN2CCN(CC(=O)NCCCN3CCCC3=O)C2=O)c1 | active: -111%
36 | COC(=O)c1[nH]c2ccc(C)cc2c1NC(=O)NC1CCCCC1 | inconclusive: -34.4%
37 | COc1ccc(N=CC2=C(O)CCCC2=O)cc1 | inconclusive: -42.8%
38 | Cc1cc(/C=N\NC(=O)CC(=O)NC2CCCCC2)c(C)n1-c1ccc(Cl)cc1 | inconclusive: -66.3%
39 | CC(C)CCNC(=O)C(NS(=O)(=O)c1ccc2c(c1)c(=O)n(C)c(=O)n2C)c1ccccc1 (stereo not given) | inconclusive: -44.4%
40 | NC(=O)CC[C@@H]1NC(=O)[C@H](Cc2ccccc2)NC(=O)[C@H](Cc2ccc(O)cc2)NC(=O)[C@@H](N)CSSC[C@@H](C(=O)N2CCC[C@H]2C(=O)N[C@@H](CCCN=C(N)N)C(=O)NCC(N)=O)NC(=O)[C@H](CC(N)=O)NC1=O | inactive: 2.45%
41 | COc1ccc2nc(NC(=O)CCc3nc(-c4ccccc4F)no3)sc2c1 | inconclusive: -33.4%
42 | Cc1ccc(C)n1NC(=O)c1ccccc1 | inactive: -14.3%
43 | O=C(NCC1CCN(c2ccc(S(=O)(=O)N3CCOCC3)cc2)CC1)c1ccc(Cl)cc1 | inconclusive: -45.5%
44 | CCOc1cc(S(=O)(=O)NC2CCCCCC2)ccc1F | inactive: 26.4%
45 | O=C1NC2C(NC(=O)N2C2CCCCC2)N1C1CCCCC1 (stereo not given) | inconclusive: -55.3%
